Measurements: publication PMC6679547
These are yes or no findings as the source states them, for the method shown. Binding seen in cells or lysates may run through a third protein. Some results given as binding are weak or reduced against the parent protein; the word gives no strength.

The chains behind the UniProt entries cited, without tags or fusion partners.
UniProt Q9BVL2: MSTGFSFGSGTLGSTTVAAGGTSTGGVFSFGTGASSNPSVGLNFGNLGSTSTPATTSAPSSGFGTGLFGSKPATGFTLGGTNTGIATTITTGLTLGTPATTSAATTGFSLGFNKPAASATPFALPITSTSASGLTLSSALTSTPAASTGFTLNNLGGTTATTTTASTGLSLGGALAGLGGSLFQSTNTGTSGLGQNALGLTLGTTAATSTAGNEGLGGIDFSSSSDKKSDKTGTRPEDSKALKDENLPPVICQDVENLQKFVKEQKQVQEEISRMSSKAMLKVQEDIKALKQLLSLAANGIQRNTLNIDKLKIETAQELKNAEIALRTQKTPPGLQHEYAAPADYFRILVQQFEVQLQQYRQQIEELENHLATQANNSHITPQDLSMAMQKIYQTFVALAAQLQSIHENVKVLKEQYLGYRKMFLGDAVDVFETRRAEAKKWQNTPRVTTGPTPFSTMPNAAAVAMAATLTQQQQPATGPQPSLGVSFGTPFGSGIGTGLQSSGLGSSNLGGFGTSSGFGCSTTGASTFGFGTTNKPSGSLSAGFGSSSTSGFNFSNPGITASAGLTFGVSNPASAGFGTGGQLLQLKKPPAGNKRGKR
UniProt Q8N4C6: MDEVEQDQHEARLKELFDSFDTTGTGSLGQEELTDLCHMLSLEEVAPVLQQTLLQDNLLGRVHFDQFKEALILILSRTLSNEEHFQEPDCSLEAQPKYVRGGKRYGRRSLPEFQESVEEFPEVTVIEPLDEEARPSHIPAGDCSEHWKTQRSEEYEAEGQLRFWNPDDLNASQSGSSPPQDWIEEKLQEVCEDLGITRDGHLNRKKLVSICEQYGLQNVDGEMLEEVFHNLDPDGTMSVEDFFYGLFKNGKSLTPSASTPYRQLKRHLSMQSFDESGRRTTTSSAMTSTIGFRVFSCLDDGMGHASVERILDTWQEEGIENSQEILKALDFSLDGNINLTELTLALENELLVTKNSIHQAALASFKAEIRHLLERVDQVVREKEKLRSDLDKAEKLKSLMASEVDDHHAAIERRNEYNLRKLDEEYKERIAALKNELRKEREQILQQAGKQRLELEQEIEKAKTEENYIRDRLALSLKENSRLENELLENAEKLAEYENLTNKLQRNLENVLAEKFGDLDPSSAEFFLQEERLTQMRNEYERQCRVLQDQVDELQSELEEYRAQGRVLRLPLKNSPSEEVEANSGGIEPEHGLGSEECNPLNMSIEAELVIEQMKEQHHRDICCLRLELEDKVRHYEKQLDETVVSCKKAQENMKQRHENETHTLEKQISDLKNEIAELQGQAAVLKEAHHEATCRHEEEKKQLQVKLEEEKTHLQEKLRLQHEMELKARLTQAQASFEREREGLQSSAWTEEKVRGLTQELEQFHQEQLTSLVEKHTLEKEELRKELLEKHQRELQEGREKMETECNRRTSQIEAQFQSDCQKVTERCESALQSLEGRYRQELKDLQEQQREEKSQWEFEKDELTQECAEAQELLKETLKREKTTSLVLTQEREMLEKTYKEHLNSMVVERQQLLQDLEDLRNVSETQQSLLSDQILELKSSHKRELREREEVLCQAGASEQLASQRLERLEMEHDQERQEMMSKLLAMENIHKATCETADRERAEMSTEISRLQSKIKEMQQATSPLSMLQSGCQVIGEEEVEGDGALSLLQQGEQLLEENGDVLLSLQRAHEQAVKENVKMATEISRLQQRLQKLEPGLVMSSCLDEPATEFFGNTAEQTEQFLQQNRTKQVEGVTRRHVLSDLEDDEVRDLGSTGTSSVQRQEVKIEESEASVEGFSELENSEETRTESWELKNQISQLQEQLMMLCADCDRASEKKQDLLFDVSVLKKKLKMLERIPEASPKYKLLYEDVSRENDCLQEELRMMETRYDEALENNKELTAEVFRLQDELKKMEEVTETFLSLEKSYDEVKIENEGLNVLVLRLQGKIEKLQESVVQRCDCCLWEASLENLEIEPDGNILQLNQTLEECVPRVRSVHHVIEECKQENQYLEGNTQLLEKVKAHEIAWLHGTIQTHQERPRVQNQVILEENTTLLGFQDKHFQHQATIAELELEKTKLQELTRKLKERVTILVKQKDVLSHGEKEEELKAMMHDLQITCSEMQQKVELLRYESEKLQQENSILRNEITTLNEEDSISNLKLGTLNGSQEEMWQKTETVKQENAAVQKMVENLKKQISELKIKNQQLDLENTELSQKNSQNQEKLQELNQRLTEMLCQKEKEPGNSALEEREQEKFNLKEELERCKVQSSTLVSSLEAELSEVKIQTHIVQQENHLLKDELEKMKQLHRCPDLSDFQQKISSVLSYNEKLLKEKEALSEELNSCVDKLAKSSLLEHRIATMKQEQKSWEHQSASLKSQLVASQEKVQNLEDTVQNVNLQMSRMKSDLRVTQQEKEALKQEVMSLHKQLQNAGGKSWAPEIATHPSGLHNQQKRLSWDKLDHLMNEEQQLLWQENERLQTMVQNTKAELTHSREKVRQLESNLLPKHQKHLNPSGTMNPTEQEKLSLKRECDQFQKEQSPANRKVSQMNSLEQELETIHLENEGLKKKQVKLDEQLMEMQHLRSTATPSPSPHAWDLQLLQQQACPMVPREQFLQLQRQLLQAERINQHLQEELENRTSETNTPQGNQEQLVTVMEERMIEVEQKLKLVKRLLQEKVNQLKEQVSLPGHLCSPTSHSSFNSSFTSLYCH

Key:
[1] = target: Nucleoporin Nup58 (human (endogenous in HeLa)) (UniProt Q9BVL2); test: co-IP; interphase HeLa cell extracts precipitated with anti-Nup58 (control: nonspecific rabbit IgG); SDS-PAGE and immunoblotting
[2] = target: Nucleoporin Nup58 (human (endogenous in HeLa)) (UniProt Q9BVL2); test: co-IP; mitotic HeLa cell extracts precipitated with anti-Nup58 (control: nonspecific rabbit IgG), protein A/G beads, 1 h at 4 °C; lysis and wash buffer 50 mM Tris-HCl pH 7.2, 250 mM NaCl, 0.1% Nonidet P-40, 2 mM EDTA, 10% glycerol; immunoblotting

Row | binding [2] | Molecule | binding [1]
1 | no binding | ninein (from UniProt Q8N4C6 1-2090) | no binding
2 | binds | SAS-6 (protein, UniProt Q6UVJ0 1-657) MSQVLFHQLVPLQVKCKDCEERRVSIRMSIELQSVSNPVHRKDLVIRLTDDTDPFFLYNLVISEEDFQSLKFQQGLLVDFLAFPQKFIDLLQQCTQEHAKEIPRFLLQLVSPAAILDNSPAFLNVVETNPFKHLTHLSLKLLPGNDVEIKKFLAGCLKCSKEEKLSLMQSLDDATKQLDFTRKTLAEKKQELDKLRNEWASHTAALTNKHSQELTNEKEKALQAQVQYQQQHEQQKKDLEILHQQNIHQLQNRLSELEAANKDLTERKYKGDSTIRELKAKLSGVEEELQRTKQEVLSLRRENSTLDVECHEKEKHVNQLQTKVAVLEQEIKDKDQLVLRTKEAFDTIQEQKVVLEENGEKNQVQLGKLEATIKSLSAELLKANEIIKKLQGDLKTLMGKLKLKNTVTIQQEKLLAEKEEKLQKEQKELQDVGQSLRIKEQEVCKLQEQLEATVKKLEESKQLLKNNEKLITWLNKELNENQLVRKQDVLGPSTTPPAHSSSNTIRSGISPNLNVVDGRLTYPTCGIGYPVSSAFAFQNTFPHSISAKNTSHPGSGTKVQFNLQFTKPNASLGDVQSGATISMPCSTDKENGENVGLESKYLKKREDSIPLRGLSQNLFSNSDHQRDGTLGALHTSSKPTALPSASSAYFPGQLPNS | no binding (condition: interphase HeLa cell extracts)
